Results: doi:10.1101/2023.07.03.547506
Read-outs that look alike come from different tables or passages of the source. Results are given in words; binding and its absence hold for the method and conditions named. For some of these results: In cells and extracts the contact can be indirect. Some entries that bind do so weakly or less than the wild type.

By UniProt entry, the sequences of proteins in these tests, tags left out. Where a name states a change or a piece, a line headed by the entry shows the natural chain unless it says otherwise. Chains listed by the source or under a name are the forms on record and can include a tag or linker.
UniProt Q9BXW6: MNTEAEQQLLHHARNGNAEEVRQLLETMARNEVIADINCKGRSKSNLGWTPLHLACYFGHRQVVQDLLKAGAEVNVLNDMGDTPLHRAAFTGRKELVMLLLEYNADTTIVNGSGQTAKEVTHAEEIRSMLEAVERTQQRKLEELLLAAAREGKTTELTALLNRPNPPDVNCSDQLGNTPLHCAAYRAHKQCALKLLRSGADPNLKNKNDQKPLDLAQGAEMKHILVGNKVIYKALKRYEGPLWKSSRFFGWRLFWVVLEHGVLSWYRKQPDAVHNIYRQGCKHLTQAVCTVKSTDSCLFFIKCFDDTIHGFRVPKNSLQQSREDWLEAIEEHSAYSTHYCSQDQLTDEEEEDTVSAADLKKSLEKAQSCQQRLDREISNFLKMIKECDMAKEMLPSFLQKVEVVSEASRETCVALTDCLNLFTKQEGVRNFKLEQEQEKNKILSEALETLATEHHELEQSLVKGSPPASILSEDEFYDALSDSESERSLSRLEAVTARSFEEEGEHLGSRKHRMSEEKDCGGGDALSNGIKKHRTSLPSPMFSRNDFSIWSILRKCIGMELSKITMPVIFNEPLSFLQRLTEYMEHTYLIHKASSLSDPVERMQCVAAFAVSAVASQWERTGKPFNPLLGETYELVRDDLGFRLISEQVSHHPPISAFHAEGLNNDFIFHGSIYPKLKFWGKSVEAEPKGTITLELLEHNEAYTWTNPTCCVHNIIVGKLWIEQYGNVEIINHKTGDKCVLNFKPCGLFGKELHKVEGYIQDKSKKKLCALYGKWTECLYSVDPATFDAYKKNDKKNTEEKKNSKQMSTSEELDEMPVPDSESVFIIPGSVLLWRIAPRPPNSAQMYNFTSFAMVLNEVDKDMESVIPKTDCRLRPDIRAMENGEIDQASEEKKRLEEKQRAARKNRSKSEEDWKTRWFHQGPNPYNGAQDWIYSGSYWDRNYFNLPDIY
UniProt O95292: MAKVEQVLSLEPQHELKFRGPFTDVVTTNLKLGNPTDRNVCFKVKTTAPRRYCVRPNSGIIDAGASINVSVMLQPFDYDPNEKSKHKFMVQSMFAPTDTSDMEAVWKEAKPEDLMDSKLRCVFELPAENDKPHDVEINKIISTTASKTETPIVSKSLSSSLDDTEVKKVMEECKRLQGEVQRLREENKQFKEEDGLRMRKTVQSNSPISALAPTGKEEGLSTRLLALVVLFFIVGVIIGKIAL
GST-tagged MSP-domain of VAPB, K87D/M89D mutant (O95292, form named): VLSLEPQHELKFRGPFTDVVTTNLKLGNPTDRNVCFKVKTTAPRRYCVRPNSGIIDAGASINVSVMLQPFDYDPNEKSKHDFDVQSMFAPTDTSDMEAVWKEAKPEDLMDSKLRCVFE
UniProt Q8WYP5: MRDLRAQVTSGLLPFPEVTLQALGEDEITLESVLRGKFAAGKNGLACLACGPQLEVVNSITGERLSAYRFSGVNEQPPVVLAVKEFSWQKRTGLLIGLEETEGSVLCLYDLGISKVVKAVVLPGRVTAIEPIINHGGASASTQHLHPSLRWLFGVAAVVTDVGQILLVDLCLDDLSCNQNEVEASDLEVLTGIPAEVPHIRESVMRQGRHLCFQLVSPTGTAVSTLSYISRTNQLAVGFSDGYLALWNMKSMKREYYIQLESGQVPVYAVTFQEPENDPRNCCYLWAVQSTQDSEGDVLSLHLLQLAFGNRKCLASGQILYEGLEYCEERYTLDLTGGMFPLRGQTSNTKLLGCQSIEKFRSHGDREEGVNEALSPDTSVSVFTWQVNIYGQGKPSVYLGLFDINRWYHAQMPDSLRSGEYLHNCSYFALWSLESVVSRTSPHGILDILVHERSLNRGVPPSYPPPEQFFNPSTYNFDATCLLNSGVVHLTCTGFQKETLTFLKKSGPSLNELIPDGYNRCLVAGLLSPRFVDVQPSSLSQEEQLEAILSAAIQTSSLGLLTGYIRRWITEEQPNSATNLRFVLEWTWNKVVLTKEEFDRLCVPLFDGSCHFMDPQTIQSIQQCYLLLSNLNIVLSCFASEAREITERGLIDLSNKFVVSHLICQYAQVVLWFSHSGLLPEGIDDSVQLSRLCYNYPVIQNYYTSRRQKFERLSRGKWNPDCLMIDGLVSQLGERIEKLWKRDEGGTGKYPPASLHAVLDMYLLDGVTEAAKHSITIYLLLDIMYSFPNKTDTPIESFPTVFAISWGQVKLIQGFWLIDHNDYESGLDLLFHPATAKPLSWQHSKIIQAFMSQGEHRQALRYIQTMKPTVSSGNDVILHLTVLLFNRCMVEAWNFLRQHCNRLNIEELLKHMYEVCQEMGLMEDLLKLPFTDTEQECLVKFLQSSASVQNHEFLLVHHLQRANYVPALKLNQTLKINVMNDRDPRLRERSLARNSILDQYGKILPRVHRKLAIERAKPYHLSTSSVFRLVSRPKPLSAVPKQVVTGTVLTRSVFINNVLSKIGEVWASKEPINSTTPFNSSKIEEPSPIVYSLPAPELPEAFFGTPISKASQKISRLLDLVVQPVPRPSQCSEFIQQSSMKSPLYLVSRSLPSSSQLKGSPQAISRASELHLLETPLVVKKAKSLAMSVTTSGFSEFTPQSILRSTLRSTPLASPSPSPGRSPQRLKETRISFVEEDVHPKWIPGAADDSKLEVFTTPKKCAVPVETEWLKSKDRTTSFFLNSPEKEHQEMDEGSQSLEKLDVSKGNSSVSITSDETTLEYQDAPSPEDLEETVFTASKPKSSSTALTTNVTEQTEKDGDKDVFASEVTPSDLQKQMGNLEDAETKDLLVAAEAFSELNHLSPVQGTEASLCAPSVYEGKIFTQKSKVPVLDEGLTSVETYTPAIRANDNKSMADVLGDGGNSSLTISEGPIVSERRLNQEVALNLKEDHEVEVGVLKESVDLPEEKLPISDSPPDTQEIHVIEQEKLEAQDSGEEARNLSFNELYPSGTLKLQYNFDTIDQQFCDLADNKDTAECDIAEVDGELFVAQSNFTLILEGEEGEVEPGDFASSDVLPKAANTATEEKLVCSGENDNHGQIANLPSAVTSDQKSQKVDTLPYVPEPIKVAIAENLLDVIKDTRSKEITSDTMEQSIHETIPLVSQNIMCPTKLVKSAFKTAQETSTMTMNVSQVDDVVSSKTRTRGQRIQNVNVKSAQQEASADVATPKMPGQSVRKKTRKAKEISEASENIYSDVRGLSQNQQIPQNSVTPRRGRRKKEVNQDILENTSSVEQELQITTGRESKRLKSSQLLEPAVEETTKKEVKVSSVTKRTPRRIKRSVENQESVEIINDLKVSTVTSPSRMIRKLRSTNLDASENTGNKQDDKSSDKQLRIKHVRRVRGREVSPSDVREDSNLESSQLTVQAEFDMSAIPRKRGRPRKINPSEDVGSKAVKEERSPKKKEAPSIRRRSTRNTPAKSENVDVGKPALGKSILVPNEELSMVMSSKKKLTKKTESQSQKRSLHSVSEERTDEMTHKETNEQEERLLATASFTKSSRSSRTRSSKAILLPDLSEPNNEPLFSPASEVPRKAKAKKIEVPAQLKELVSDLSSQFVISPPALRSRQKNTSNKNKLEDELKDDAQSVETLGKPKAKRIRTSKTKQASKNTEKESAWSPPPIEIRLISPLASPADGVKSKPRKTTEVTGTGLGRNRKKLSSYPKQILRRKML

What was measured:
[1] = molecular target: T1, ORP1-peptide (amino acid residues 469-485) (UniProt Q9BXW6); experiment: pull-down
T1 sequence (peptide, biotin at the N-terminus): SILSEDEFYDALSDSES

[2] = molecular target: Vesicle-Associated-membrane Protein-associated protein B (VAPB), endogenous (human (endogenous in HeLa)) (UniProt O95292); experiment: co-IP
[3] = molecular target: GFP-VAPB (UniProt O95292); experiment: co-IP
[4] = molecular target: GST-tagged wild type MSP-domain of VAPB (UniProt O95292); experiment: pull-down
[5] = molecular target: GST-tagged MSP-domain of VAPB, K87D/M89D mutant (UniProt O95292); experiment: pull-down
[6] = molecular target: GST-tagged wild type MSP-domain of VAPB (UniProt O95292); experiment: pull-down; remark: listed apart in the source
[7] = molecular target: wild-type full-length HA-VAPB (UniProt O95292); experiment: proximity ligation

Row | binding [1] | binding [2] | binding [3] | binding [4] | binding [5] | binding [6] | binding [7] | Substance
1 | binds |  |  |  |  |  |  | GST-tagged wild type MSP-domain of VAPB (from UniProt O95292 7-124) (domain or fragment)
2 |  | binds | binds | binds weakly | no binding | binds | binds | ELYS (embryonic large molecule derived from yolk sac), endogenous full-length nucleoporin (from UniProt Q8WYP5 1-2266)
